From patent publication US7700636B2, “Thiadiazole compounds and methods of use” (Amgen Inc., priority 2004, dated 2010)
Some entries share one result that the patent states for a list of compounds.

Sequences of proteins named here, by UniProt entry; tags and fusion partners are left off. Residues count along the entry.
UniProt P31749, 118-480 limits assumed: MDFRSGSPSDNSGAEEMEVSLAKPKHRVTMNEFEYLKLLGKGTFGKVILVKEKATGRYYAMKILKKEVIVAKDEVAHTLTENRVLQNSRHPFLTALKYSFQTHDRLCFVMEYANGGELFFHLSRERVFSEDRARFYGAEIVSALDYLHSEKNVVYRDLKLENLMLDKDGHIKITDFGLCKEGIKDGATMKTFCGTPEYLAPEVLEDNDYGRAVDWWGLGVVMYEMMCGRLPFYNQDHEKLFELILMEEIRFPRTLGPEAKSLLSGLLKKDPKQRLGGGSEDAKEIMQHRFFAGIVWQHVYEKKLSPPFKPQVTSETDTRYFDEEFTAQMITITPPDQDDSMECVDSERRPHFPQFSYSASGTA

Experiments:
[1] = tested on: PKB; experiment: PKB activity in cells: phosphorylation of PKB substrates FKHRL1, GSK3a/b and Tuberin by immunoassay in MDA-MB-468; format: cell-based; conditions: PTEN null human breast tumor cell line MDA-MB-468; phospho-FKHRL1, GSK3a/b, Tuberin; read-out: PKB kinase activity IC50 in cells
[2] = target: T1, PKBα (Homo sapiens, UniProt P31749); experiment: PKB kinase assay (P33-labeled ATP, peptide substrate, filter plate); format: biochemical; conditions: full length PKBα and PKBα kinase domain with pleckstrin domain (amino acids 1-117) deleted
T1 construct: fused on or other part: Probably a His tag on the vendor's proteins

Compound: N[C@H](CNc1nnc(-c2ccc3[nH]ncc3c2)s1)Cc1ccncc1 [Example 162, N-((S)-2-amino-3-(pyridin-4-yl)propyl)-5-(1H-indazol-5-yl)-1,3,4-thiadiazol-2-amine]
- IC50 [1]: < 10 µM
- IC50 [2]: < 10 µM

Compound: Cc1n[nH]c2ncc(-c3nnc(NC[C@@H](N)Cc4cccc(C(F)(F)F)c4)s3)cc12 [Example 112, N-((S)-2-amino-3-(3-(trifluoromethyl)phenyl)propyl)-5-(3-methyl-1H-pyrazolo[3,4-b]pyridin-5-yl)-1,3,4-thiadiazol-2-amine]
- IC50 [1]: < 10 µM
- IC50 [2]: < 10 µM

Compound: Cc1n[nH]c2ccc(-c3nnc(NC[C@@H](N)Cc4ccsc4)s3)cc12 [Example 173, N-((S)-2-amino-3-(thiophen-3-yl)propyl)-5-(3-methyl-1H-indazol-5-yl)-1,3,4-thiadiazol-2-amine]
- IC50 [1]: < 10 µM
- IC50 [2]: < 10 µM

Compound: Cc1n[nH]c2ccc(-c3nnc(NC[C@@H](N)Cc4cccs4)s3)cc12 [Example 44, (S)-N-[5-(3-Methyl-1H-indazol-5-yl)-[1,3,4]thiadiazol-2-yl]-3-thiophen-2-yl-propane-1,2-diamine]
- IC50 [1]: < 10 µM
- IC50 [2]: < 10 µM

Compound: CNC1(CNc2nnc(-c3ccc4[nH]nc(C)c4c3)s2)Cc2ccccc2C1 [Example 10, (2-Methylamino-indan-2-ylmethyl)-[5-(3-methyl-1H-indazol-5-yl)-[1,3,4]thiadiazol-2-yl]-amine]
- IC50 [1]: < 10 µM
- IC50 [2]: < 10 µM

Compound: N[C@H](CNc1nnc(-c2ccc3[nH]ncc3c2)s1)Cc1cccc(C(F)(F)F)c1 [Example 86, N-((S)-2-amino-3-(3-(trifluoromethyl)phenyl)propyl)-5-(1H-indazol-5-yl)-1,3,4-thiadiazol-2-amine]
- IC50 [1]: < 10 µM
- IC50 [2]: < 10 µM

Compound: N[C@H](CNc1nnc(-c2ccc3cnccc3c2)s1)Cc1cc(F)cc(F)c1 [Example 151, N-((S)-2-amino-3-(3,5-difluorophenyl)propyl)-5-(isoquinolin-6-yl)-1,3,4-thiadiazol-2-amine]
- IC50 [1]: < 10 µM
- IC50 [2]: < 10 µM

Compound: N[C@]1(CNc2nnc(-c3ccc4cnccc4c3)s2)C[C@H]1c1ccccc1 [Example 166, N-(((1R,2S)-1-amino-2-phenylcyclopropyl)methyl)-5-(isoquinolin-6-yl)-1,3,4-thiadiazol-2-amine]
- IC50 [1]: < 10 µM
- IC50 [2]: < 10 µM

Compound: COc1ccc(C[C@H](N)CNc2nnc(-c3ccc4[nH]nc(C)c4c3)s2)cc1 [Example 31, (S)-3-(4-Methoxy-phenyl)-N-[5-(3-methyl-1H-indazol-5-yl)-[1,3,4]thiadiazol-2-yl]-propane-1,2-diamine]
- IC50 [1]: < 10 µM
- IC50 [2]: < 10 µM

Compound: N[C@H](CNc1nnc(-c2ccc3[nH]ncc3c2)s1)Cc1ccccc1Cl [Example 75, N-((S)-2-amino-3-(2-chlorophenyl)propyl)-5-(1H-indazol-5-yl)-1,3,4-thiadiazol-2-amine]
- IC50 [1]: < 10 µM
- IC50 [2]: < 10 µM

Compound: COc1ccc(CC[C@H](N)CNc2nnc(-c3ccc4[nH]nc(C)c4c3)s2)cc1 [Example 54, N-((S)-2-amino-4-(4-methoxyphenyl)butyl)-5-(3-methyl-1H-indazol-5-yl)-1,3,4-thiadiazol-2-amine]
- IC50 [1]: < 10 µM
- IC50 [2]: < 10 µM

Compound: Cc1n[nH]c2ccc(-c3nnc(NC[C@@H](N)Cc4cc(F)cc(F)c4)s3)cc12 [Example 26, (S)-1-(3,5-Difluoro-benzyl)-2-[5-(3-methyl-1H-indazol-5-yl)-[1,3,4]thiadiazol-2-ylamino]-ethyl-ammonium chloride]
- IC50 [1]: < 10 µM
- IC50 [2]: < 10 µM

Compound: COc1ccc(CNC(CNc2nnc(-c3ccc4[nH]nc(C)c4c3)s2)Cc2cccc(C(F)(F)F)c2)cc1 (centres unmarked) [Example 141, N-(4-methoxybenzyl)-1-(5-(3-methyl-1H-indazol-5-yl)-1,3,4-thiadiazol-2-ylamino)-3-(3-(trifluoromethyl)phenyl)propan-2-aminium 2,2,2-trifluoroacetate]
- IC50 [1]: < 10 µM
- IC50 [2]: < 10 µM
